In article PMC6796863:

tested on: N6amt1 + Trm112; test: EMSA; conditions: 10 mM MgAc2, 250 or 500 pmol protein, 50 pmol DNA; EMSA: 10 mM Tris-HCl pH 7.5, 50 mM KCl, 10 mM MgAc2, 20 ul, 25 C, 2 h; 2.5% agarose, Gel Green; recombinant protein

Binding result, no binding:
ACTGACCATGGATCG [DNA4]
AATGAGAAGTTTATC [DNA2]
AAAATCGAGGTTCCC [DNA3]
CTTTTTAGAAGCACA [DNA1]

No signal at the amounts used counts as a negative. At least one verdict was read from the data and is not stated in words by the source.
